# Reference: the supplement of paper PMC10032668
# Chains of the proteins cited; added tags and fusions are not shown.
# AARS, P49588, UniProt P49588, whole entry: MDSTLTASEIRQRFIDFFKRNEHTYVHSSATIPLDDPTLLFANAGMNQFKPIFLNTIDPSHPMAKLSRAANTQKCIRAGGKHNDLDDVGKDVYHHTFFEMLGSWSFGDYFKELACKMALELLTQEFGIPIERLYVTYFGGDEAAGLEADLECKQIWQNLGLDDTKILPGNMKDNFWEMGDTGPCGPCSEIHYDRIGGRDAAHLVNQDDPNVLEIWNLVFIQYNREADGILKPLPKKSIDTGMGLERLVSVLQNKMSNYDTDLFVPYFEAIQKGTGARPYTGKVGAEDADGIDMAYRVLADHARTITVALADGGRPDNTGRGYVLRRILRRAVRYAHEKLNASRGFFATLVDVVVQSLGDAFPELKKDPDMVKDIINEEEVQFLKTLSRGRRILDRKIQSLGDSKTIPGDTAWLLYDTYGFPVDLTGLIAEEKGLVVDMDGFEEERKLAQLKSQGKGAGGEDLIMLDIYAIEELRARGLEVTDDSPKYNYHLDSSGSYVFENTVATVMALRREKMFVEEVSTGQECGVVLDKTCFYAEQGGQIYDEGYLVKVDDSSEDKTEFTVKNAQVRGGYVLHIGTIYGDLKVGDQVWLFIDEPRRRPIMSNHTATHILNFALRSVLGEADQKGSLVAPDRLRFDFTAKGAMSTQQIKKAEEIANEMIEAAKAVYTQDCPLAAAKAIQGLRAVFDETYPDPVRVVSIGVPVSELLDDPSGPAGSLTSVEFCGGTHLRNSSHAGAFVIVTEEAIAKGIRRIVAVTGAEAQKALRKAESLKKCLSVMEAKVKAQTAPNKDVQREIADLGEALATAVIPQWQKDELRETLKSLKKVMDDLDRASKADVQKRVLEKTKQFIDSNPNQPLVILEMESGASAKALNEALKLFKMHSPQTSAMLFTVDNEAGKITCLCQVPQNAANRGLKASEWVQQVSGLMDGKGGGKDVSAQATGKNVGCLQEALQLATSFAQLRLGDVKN
# ACTL6A, O96019, UniProt O96019, whole entry: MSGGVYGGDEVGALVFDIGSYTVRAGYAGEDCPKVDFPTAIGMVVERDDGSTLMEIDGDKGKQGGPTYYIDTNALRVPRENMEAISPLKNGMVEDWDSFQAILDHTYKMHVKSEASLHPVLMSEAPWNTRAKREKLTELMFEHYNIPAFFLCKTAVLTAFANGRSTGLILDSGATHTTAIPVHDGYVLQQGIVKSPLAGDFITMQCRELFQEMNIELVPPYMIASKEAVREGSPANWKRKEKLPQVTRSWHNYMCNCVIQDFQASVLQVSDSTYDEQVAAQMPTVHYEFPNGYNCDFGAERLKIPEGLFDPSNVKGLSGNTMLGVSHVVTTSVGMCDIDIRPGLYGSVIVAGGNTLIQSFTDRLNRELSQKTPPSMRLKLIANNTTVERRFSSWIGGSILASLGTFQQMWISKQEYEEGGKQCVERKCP
# ATP6V1C1, P21283, UniProt P21283, whole entry: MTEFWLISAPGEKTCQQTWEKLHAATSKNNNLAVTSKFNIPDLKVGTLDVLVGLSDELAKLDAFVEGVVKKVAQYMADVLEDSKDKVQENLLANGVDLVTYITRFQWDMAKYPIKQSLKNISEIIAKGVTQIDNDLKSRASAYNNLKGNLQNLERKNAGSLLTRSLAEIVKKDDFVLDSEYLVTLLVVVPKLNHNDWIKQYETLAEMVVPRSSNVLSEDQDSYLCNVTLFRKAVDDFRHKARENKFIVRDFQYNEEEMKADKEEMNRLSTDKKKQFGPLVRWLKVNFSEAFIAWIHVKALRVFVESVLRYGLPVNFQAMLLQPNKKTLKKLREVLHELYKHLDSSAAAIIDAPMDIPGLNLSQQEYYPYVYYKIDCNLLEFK
# CCNB1, P14635, UniProt P14635, whole entry: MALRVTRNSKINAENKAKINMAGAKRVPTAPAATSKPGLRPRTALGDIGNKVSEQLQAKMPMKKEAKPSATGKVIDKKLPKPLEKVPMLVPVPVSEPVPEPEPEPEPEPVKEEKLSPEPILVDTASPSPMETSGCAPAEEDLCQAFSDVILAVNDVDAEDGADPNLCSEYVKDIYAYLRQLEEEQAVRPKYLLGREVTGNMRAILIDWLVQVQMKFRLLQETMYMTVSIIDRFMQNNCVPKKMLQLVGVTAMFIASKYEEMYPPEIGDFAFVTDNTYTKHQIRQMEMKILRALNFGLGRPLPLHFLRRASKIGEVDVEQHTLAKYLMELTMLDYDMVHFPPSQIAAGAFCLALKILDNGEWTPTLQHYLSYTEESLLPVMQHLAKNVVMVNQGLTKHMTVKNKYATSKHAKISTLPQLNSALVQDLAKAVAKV
# CSNK2B, P67870, UniProt P67870, whole entry: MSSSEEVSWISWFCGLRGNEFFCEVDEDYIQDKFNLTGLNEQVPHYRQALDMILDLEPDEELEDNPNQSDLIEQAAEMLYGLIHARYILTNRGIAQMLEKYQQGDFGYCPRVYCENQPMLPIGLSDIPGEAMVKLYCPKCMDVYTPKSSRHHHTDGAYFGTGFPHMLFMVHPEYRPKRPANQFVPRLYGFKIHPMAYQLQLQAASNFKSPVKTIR
# EIF3A, Q14152, UniProt Q14152, whole entry: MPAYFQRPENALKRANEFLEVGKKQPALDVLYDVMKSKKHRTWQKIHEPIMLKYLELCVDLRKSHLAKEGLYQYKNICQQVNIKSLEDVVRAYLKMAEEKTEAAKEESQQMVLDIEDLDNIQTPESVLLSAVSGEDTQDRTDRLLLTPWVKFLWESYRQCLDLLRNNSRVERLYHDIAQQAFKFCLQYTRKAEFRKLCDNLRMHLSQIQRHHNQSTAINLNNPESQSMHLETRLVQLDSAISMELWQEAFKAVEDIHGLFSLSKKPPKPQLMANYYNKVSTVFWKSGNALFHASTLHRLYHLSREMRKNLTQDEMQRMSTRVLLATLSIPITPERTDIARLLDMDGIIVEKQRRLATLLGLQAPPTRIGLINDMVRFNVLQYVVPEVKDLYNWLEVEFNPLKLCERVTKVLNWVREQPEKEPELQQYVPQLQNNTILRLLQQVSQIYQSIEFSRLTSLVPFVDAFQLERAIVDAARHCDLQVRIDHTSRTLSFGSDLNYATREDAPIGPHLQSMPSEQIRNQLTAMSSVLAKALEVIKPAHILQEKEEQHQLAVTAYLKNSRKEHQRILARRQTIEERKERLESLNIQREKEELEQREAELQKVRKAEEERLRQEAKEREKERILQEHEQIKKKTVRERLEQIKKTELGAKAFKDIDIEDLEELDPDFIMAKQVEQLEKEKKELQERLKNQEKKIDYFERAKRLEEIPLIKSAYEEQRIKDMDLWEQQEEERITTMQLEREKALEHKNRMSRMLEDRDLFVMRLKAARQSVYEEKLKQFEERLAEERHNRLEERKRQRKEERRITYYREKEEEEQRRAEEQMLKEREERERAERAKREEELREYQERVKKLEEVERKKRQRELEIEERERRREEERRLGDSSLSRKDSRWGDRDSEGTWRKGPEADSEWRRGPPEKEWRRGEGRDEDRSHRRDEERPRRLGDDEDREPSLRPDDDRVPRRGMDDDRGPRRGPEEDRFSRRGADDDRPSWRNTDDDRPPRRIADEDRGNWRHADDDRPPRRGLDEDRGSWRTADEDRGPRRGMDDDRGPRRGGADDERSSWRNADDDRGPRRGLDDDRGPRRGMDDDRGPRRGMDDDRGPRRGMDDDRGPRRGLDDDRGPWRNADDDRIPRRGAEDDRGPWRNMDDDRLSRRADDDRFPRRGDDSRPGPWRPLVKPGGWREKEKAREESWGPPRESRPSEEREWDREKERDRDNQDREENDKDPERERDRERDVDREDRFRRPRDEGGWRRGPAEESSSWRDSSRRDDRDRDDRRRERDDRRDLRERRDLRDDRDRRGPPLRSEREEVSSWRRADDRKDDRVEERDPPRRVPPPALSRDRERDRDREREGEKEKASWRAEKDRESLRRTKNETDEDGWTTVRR
# FLNA, P21333, UniProt P21333, whole entry: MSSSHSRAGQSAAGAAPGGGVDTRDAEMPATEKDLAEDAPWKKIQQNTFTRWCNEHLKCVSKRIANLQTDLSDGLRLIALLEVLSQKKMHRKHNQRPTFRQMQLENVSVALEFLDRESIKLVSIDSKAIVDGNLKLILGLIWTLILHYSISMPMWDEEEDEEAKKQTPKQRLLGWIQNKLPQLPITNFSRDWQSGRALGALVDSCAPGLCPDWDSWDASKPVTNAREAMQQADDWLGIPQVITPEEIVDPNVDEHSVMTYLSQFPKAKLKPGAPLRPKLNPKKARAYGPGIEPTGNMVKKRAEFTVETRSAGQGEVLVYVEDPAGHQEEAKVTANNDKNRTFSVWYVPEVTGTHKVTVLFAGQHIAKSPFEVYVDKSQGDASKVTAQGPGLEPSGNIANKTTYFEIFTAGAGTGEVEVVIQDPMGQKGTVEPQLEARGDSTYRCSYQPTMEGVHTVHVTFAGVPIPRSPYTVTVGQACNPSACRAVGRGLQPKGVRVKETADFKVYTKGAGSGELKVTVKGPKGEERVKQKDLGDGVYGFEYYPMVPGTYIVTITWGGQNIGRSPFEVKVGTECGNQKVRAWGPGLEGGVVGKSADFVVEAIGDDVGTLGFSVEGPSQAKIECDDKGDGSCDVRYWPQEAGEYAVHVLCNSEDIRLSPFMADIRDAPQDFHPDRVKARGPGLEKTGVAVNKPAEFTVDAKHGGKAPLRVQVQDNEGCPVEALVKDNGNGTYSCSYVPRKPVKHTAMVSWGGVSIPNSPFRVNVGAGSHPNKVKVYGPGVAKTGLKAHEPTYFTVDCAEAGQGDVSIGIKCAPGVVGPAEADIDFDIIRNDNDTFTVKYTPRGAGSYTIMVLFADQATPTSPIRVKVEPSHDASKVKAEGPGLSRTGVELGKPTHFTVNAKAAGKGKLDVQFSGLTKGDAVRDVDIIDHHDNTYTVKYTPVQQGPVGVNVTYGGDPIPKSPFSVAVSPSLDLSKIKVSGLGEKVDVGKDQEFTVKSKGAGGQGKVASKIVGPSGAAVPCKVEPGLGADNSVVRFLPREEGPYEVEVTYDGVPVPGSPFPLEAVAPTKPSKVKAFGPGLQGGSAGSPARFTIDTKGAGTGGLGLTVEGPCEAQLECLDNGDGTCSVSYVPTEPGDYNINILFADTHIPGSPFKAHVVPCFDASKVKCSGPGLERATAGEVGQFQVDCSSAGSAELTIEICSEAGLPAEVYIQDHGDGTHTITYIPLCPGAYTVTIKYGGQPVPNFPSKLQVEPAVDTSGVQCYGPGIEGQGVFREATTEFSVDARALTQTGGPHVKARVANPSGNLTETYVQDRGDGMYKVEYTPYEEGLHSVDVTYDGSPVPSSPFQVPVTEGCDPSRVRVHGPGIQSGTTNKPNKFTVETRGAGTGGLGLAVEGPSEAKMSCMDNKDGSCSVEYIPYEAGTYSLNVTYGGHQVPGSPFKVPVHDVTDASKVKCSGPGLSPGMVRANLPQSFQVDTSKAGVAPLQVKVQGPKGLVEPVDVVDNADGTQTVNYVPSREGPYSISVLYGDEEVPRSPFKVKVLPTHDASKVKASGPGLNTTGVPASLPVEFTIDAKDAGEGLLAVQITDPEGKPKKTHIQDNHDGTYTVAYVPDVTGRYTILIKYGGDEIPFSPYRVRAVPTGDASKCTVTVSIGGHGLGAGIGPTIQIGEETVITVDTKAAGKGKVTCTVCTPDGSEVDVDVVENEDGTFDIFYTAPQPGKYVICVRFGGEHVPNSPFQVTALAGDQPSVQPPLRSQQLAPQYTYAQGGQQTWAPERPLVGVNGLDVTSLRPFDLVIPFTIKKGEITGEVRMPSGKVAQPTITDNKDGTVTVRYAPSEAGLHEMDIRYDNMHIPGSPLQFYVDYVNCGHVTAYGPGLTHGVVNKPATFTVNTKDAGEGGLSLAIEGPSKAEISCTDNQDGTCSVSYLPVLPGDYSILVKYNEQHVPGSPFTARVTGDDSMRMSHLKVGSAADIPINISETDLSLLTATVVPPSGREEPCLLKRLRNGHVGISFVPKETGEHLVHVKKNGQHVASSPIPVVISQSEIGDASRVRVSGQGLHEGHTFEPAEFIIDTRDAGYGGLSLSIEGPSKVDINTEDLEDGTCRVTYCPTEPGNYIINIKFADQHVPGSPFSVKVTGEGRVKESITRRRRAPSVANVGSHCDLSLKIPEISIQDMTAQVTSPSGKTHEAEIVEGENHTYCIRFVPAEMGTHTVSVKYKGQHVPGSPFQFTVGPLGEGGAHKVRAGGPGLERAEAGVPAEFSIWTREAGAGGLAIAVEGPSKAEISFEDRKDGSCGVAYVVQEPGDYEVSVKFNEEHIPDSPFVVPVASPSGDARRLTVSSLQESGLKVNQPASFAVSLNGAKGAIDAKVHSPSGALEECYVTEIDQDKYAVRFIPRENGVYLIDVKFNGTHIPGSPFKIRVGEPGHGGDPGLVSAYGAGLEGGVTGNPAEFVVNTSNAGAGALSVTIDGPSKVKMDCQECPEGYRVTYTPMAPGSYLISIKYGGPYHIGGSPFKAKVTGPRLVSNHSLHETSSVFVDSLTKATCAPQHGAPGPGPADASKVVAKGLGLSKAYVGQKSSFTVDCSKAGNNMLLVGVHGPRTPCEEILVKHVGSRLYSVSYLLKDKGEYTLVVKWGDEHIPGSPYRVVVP
# Some of the results follow. Only hits are listed; about a third recur on repeated control peptides.
# B1: RP3-332B22.1 (peptide)
# chain: LWRLDSKIESRSYMF
# What was measured:
# Assay in all cases: PRISMA enrichment of interactor (LFQ) in peptide spot vs all other peptide spots (log2 fold change); higher = stronger / more specific binding of the interactor to the peptide
# [1] = target: AARS, P49588
# Protocol: (§1)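 PRISMA: 15-aa overlapping tiles (offset 8 aa) of 60 microproteins, plus SOS1/GLUT1 control peptides, were spot-synthesized on cellulose membranes in triplicate. Membranes were incubated with benzonase-treated HEK293T lysate, and bound proteins were identified by LC-MS/MS with LFQ. Enrichment is the log2 fold change of each protein in one spot versus all other spots. Only interactors passing the significance cutoff are listed.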
# [2] = target: ACLY, P53396
# Protocol: as §1
# [3] = target: ACTL6A, O96019
# Protocol: as §1
# [4] = target: ATP6V1C1, P21283
# Protocol: as §1
# [5] = target: BAZ1B, Q9UIG0
# Protocol: as §1
# [6] = target: CCNB1, P14635
# Protocol: as §1
# [7] = target: CDC5L, Q99459
# Protocol: as §1
# [8] = target: CEBPZ, Q03701
# Protocol: as §1
# [9] = target: CSNK2B, P67870
# Protocol: as §1
# [10] = target: DDX6, P26196
# Protocol: as §1
# [11] = target: DNM2, P50570
# Protocol: as §1
# [12] = target: DSG2, Q14126
# Protocol: as §1
# [13] = target: ECI2, O75521
# Protocol: as §1
# [14] = target: EEF1B2, P24534
# Protocol: as §1
# [15] = target: EIF3A, Q14152
# Protocol: as §1
# [16] = target: EIF4B, P23588
# Protocol: as §1
# [17] = target: FBXO45, P0C2W1
# Protocol: as §1
# [18] = target: FLNA, P21333
# Protocol: as §1
# [19] = target: FMR1, Q06787
# Protocol: as §1
# [20] = target: GPD1L, Q8N335
# Protocol: as §1
# [21] = target: GTF3C1, Q12789
# Protocol: as §1
# [22] = target: HACD2, Q6Y1H2
# Protocol: as §1
# [23] = target: NBAS, A2RRP1
# Protocol: as §1
# [24] = target: NOL12, Q9UGY1
# Protocol: as §1
# [25] = target: ODF2, Q5BJF6
# Protocol: as §1
# [26] = target: PPP1CB, P62140
# Protocol: as §1
# [27] = target: PRPF8, Q6P2Q9
# Protocol: as §1
# [28] = target: PSMB1, P20618
# Protocol: as §1
# [29] = target: RBM33, Q96EV2
# Protocol: as §1
# [30] = target: RECQL5, O94762
# Protocol: as §1
# [31] = target: RIOK1, Q9BRS2
# Protocol: as §1
# [32] = target: RTRAF, Q9Y224
# Protocol: as §1
# [33] = target: SBDS, Q9Y3A5
# Protocol: as §1
# [34] = target: TAF15, Q92804
# Protocol: as §1
# [35] = target: TMED1, Q13445
# Protocol: as §1
# [36] = target: TRRAP, Q9Y4A5
# Protocol: as §1
# [37] = target: TWNK, Q96RR1
# Protocol: as §1
# [38] = target: USP34, Q70CQ2
# Protocol: as §1
# [39] = target: WTAP, Q15007
# Protocol: as §1
# [40] = target: YTHDC2, Q9H6S0
# Protocol: as §1
binder,measurement,setting,value
B1,PRISMA enrichment of interactor (log2),[1],5.25
same,PRISMA enrichment of interactor (log2),[2],6.16
same,PRISMA enrichment of interactor (log2),[3],5.22
same,PRISMA enrichment of interactor (log2),[4],4.2
same,PRISMA enrichment of interactor (log2),[5],6.67
same,PRISMA enrichment of interactor (log2),[6],7.71
same,PRISMA enrichment of interactor (log2),[7],5.29
same,PRISMA enrichment of interactor (log2),[8],4.76
same,PRISMA enrichment of interactor (log2),[9],5.44
same,PRISMA enrichment of interactor (log2),[10],5.12
same,PRISMA enrichment of interactor (log2),[11],7.28
same,PRISMA enrichment of interactor (log2),[12],4.97
same,PRISMA enrichment of interactor (log2),[13],4.54
same,PRISMA enrichment of interactor (log2),[14],5.82
same,PRISMA enrichment of interactor (log2),[15],5.01
same,PRISMA enrichment of interactor (log2),[16],4.56
same,PRISMA enrichment of interactor (log2),[17],7.1
same,PRISMA enrichment of interactor (log2),[18],5.85
same,PRISMA enrichment of interactor (log2),[19],5.1
same,PRISMA enrichment of interactor (log2),[20],5.82
same,PRISMA enrichment of interactor (log2),[21],4.84
same,PRISMA enrichment of interactor (log2),[22],5.28
same,PRISMA enrichment of interactor (log2),[23],3.9
same,PRISMA enrichment of interactor (log2),[24],5.19
same,PRISMA enrichment of interactor (log2),[25],6.48
same,PRISMA enrichment of interactor (log2),[26],4.95
same,PRISMA enrichment of interactor (log2),[27],5.61
same,PRISMA enrichment of interactor (log2),[28],5.22
same,PRISMA enrichment of interactor (log2),[29],4.24
same,PRISMA enrichment of interactor (log2),[30],5.23
same,PRISMA enrichment of interactor (log2),[31],12.2
same,PRISMA enrichment of interactor (log2),[32],5.57
same,PRISMA enrichment of interactor (log2),[33],6.36
same,PRISMA enrichment of interactor (log2),[34],5.08
same,PRISMA enrichment of interactor (log2),[35],5.35
same,PRISMA enrichment of interactor (log2),[36],5.04
same,PRISMA enrichment of interactor (log2),[37],7.88
same,PRISMA enrichment of interactor (log2),[38],4.86
same,PRISMA enrichment of interactor (log2),[39],6.71
same,PRISMA enrichment of interactor (log2),[40],6.6

# As a working copy, part of the list above.
binder,measurement,setting,value
B1,PRISMA enrichment of interactor (log2),[26],4.95
same,PRISMA enrichment of interactor (log2),[27],5.61
same,PRISMA enrichment of interactor (log2),[28],5.22
